Laboratory results from PubChem BioAssay AID328 (DTP/NCI, 2004).
The list is a part of this screen's results and no random one: it is rich in T/C values a quarter to a half above the control, in often repeated tests (any T/C) and in doses without a T/C. Other doses and runs of a compound stand elsewhere. T/C gives the treated animals as a percentage of the vehicle group. Some doses have a count of surviving animals in place of a T/C: the source files T/C as zero there, which appears to mark a toxic dose or a test without result, not a measured value. Some doses without a T/C left all or most animals alive at the check, yet need not have been tolerated: the source hardly ever lists a survival T/C far under the control, and the zero likely stands for such cases as well. Counts of survivors are from the toxicity check (mostly the fifth day) where no day follows; animals may have died later. Schedules are NCI's codes, taken here to give the interval after Q, in days (D) or hours (H), and the number of doses after X. For survival time, this PubChem deposit counts one and a half times the control or more as active, and values a quarter to a half above the control carry no call in these data; other NCI protocols may use other cut-offs. Some T/C values carry the count of animals alive at the toxicity check (mostly the fifth day); where none is given, no animal had died by that day.

Test system: BDF1 mice, P388 leukemia ip, median survival T/C
Experiment: NCI In Vivo Anticancer Drug Screen. Data for tumor model P388 Leukemia (intraperitoneal) in B6D2F1 (BDF1) mice
Details: T/C endpoint: median survival time, higher T/C = longer survival
In short: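 Antitumour effect was judged in vivo: survival in drug-treated mice, normalised to that of vehicle-dosed controls, gives the reported T/C.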

[1] = dose: 400.0 mg/kg/injection, schedule: Q04DX003 (ip), vehicle: Klucel (hydroxypropylcellulose) (HPC)
[2] = dose: 100.0 mg/kg/injection, schedule: Q01DX009 (ip), vehicle: saline with Tween-80
[3] = dose: 200.0 mg/kg/injection, schedule: Q01DX009 (ip), vehicle: saline with Tween-80
[4] = dose: 400.0 mg/kg/injection, schedule: Q01DX009 (ip), vehicle: saline with Tween-80

In the case of `N#CCC(N)=C(C#N)C#N`, the survivor count (dose: 200.0 mg/kg/injection, schedule: Q04DX003 (ip), vehicle: Klucel (hydroxypropylcellulose) (HPC)) is reported as 0 of 6 and the survivor count [1] is reported as 0 of 6.
With `COc1c2c(cc3oc4ccccc4c(=O)c13)CCCC2=O` the survivor count (dose: 100.0 mg/kg/injection, schedule: Q01DX005 (ip), vehicle: Klucel (hydroxypropylcellulose) (HPC)) was 5 of 5.
`O=C1C=CC(=O)C23CC=CCC12C(=O)c1ccccc1C3=O` (configuration not stated) was tested, and the survivor count (dose: 50.0 mg/kg/injection, schedule: Q04DX003 (ip), vehicle: water) was 3 of 6 and the survivor count (dose: 100.0 mg/kg/injection, schedule: Q04DX003 (ip), vehicle: water) was 1 of 6.
In the case of `COc1ccc(C(CC(=O)c2ccc3c(c2)OCO3)c2c(O)c3ccccc3oc2=O)cc1OC` (configuration not stated), the survivor count [2] is reported as 6 of 6, the survivor count [3] is reported as 5 of 6 and the survivor count [4] is reported as 4 of 6.
For `CCOC(=O)c1nc2nc(Cl)c(Cl)nc2[nH]1`, the survivor count (dose: 8.0 mg/kg/injection, schedule: Q01DX009 (ip), vehicle: saline) was 6 of 6, the survivor count (dose: 16.0 mg/kg/injection, schedule: Q01DX009 (ip), vehicle: saline) was 6 of 6 and the survivor count (dose: 400.0 mg/kg/injection, schedule: Q04DX003 (ip), vehicle: saline) was 2 of 6.
`CC1(C)C=C(C(Br)c2ccc(Cl)cc2)C(=O)c2ccccc21` (configuration not stated) was tested, and the T/C (dose: 50.0 mg/kg/injection, schedule: Q01DX009 (ip), vehicle: saline) was 130 % of control and the T/C (dose: 200.0 mg/kg/injection, schedule: Q01DX009 (ip), vehicle: saline) was 130 % of control.
`Nc1ncnc2c1cnn2CCCl` was tested, and the survivor count (dose: 400.0 mg/kg/injection, schedule: Q04DX003 (ip), vehicle: saline with Tween-80) was 3 of 6.
With `CC(C)CC(=O)CC1(C)CCC(c2ccoc2)O1` (configuration not stated) the T/C [3] was 125 % of control [4 of 6 alive].
`CC(C(=O)O)S(=O)(=O)c1ccccc1` (configuration not stated) was tested, and the survivor count (dose: 400.0 mg/kg/injection, schedule: Q04DX002 (ip), vehicle: saline with Tween-80) was 2 of 6.
`Cc1ccccc1NC(=O)Nc1ccccc1C` was tested, and the survivor count (dose: 1.5 mg/kg/injection, schedule: Q01DX009 (ip), vehicle: Klucel (hydroxypropylcellulose) (HPC)) was 6 of 6, the survivor count (dose: 3.0 mg/kg/injection, schedule: Q01DX009 (ip), vehicle: Klucel (hydroxypropylcellulose) (HPC)) was 6 of 6 and the survivor count (dose: 6.0 mg/kg/injection, schedule: Q01DX009 (ip), vehicle: Klucel (hydroxypropylcellulose) (HPC)) was 6 of 6. The survivor count (dose: 12.5 mg/kg/injection, schedule: Q01DX009 (ip), vehicle: Klucel (hydroxypropylcellulose) (HPC)) was 6 of 6, the survivor count (dose: 25.0 mg/kg/injection, schedule: Q01DX009 (ip), vehicle: Klucel (hydroxypropylcellulose) (HPC)) was 6 of 6 and the survivor count (dose: 50.0 mg/kg/injection, schedule: Q01DX009 (ip), vehicle: Klucel (hydroxypropylcellulose) (HPC)) was 6 of 6. For the same molecule, the survivor count (dose: 100.0 mg/kg/injection, schedule: Q01DX009 (ip), vehicle: Klucel (hydroxypropylcellulose) (HPC)) was 6 of 6, the survivor count (dose: 200.0 mg/kg/injection, schedule: Q01DX009 (ip), vehicle: Klucel (hydroxypropylcellulose) (HPC)) was 6 of 6 and the survivor count (dose: 400.0 mg/kg/injection, schedule: Q01DX009 (ip), vehicle: Klucel (hydroxypropylcellulose) (HPC)) was 6 of 6.
`CCCCCC(=O)c1ccc(OCCCN2CCN(C(=O)OCC)CC2)cc1` was tested, and the survivor count [4] was 3 of 6.
For `CCC1CN1P(=O)(OCCC#N)N1CC1CC` (configuration not stated), the survivor count [2] was 6 of 6, the survivor count [3] was 2 of 6 and the survivor count [4] was 0 of 6.
For `COc1cc2cc(c1Cl)NC(=O)/C=C/C(C)=C/[C@H](C)[C@@H]1C[C@@](O)(NC(=O)O1)[C@H](OC)C=C/C=C(\C)C2`, the survivor count (dose: 12.5 micrograms/kg/injection, schedule: Q01DX009 (ip), vehicle: saline + alcohol) was 6 of 6.
`ClC1=C(Cl)C2(Cl)C3COCC3C1(Cl)C2(Cl)Cl` (configuration not stated) was tested, and the survivor count (dose: 100.0 mg/kg/injection, schedule: Q04DX003 (ip), vehicle: Klucel (hydroxypropylcellulose) (HPC)) was 6 of 6 and the survivor count [1] was 5 of 6.
